Results taken from the supplement of paper PMC3334620.
Over roughly 33,000 sequences, “E-score (-0.5 to 0.5)” has its median near -0.0014; the highest 2% begin near 0.25. This is one part of the list.

The sequences below were run against T1, Cad1 (UniProt P24813) (assay: PBM E-score (8-mer binding enrichment) (E-score (-0.5 to 0.5)); higher = stronger / more preferred TF binding). Settings: protein concentration: 100 nM; construct: GST-full length.
T1 sequence: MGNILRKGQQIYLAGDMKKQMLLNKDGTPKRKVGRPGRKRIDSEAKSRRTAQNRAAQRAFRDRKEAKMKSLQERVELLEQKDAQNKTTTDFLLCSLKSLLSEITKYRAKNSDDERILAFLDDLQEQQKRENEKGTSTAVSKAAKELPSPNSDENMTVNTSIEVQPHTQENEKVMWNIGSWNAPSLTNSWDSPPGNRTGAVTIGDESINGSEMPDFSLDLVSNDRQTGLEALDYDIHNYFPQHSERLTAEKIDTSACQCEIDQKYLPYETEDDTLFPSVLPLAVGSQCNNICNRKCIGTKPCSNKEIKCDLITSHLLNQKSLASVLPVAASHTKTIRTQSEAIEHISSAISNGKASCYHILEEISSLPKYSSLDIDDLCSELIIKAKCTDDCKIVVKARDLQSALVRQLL
Procedure, shortened: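 Yeast transcription factors, full-length or as DNA-binding domains, were expressed with a GST tag using PURExpress in vitro transcription/translation. At about 100-200 nM they were applied to universal all-10-mer Agilent arrays, double-stranded by primer extension on fresh or once-stripped slides. Fluorescent anti-GST detected bound protein, and masliner normalised the scans. E-scores for ungapped eight-base words, pooled with reverse complements, came from the Universal PBM Analysis Suite.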

Sequence | PBM E-score
CATTGGTC | 0.145
CACAAATC | 0.126
AACGAAAG | 0.0872
GGGGTGGA | -0.253
AGTTTATG | -0.0699
TCATGAAA | -0.0885
GAGCCGGC | -0.00786
CGTGAGCC | -0.114
CACCTCTC | -0.253
CTAAGATA | -0.0701
CAGTTCGG | 0.0626
ATGTGTCG | 0.162
GTATCTAA | 0.112
TCCGTACA | 0.176
AGGCAGTA | -0.103
TAACGAAA | 0.26
GAACATAC | 0.0334
ACAAAAAC | 0.248
GGCAACAC | 0.0577
GACTACAA | -0.127
ACGAGCGA | 0.0401
CGCAGATA | 0.00255
ATCTCGAC | 0.0915
CAGGAGGA | -0.292

Sequence | PBM E-score
GAATGGCA | -0.16
ACAGTGCG | -0.0424
GAGCGATA | 0.0906
ACTCCTCG | 0.0152
CTAGTTGC | 0.0214
AAGAATAT | -0.0257
GCGCACAA | 0.24
ACGGTGTA | 0.0708
CGTCCCCC | -0.494
AGTCGTTA | -0.0111
ATACCATC | 0.0988
CCTTGTTA | -0.0461
ATCTGATG | 0.00913
GCGGAAAC | -0.151
ATAATCGG | 0.126
AGTCTGGG | -0.109
AACACGGC | -0.0858
AACTCTTG | -0.0936
AGCAATGC | 0.202
AGTCGATA | 0.0177
AGATGGGA | -0.204
AGACAGAT | 0.131
ATAAGGCC | 0.00589
GATCAAAA | 0.144

Looked up one by one from the entries so far:
Sequence | PBM E-score
AGACAGAT | 0.131
ACTCCTCG | 0.0152

Following part

Sequence | PBM E-score
AAACGAAG | 0.0229
CGACGTTC | -0.265
CTCTGCAA | -0.124
ATTCCTAA | 0.0977
GCGACTCC | -0.205
TGTCATAA | 0.137
GTAAAAAA | 0.137
TGGCTAAA | 0.0225
GTGCGCCA | -0.14
ATACGCTA | 0.0632
AGACGGAG | -0.033
GATATGAA | 0.113
CACAGCGA | 0.133
CCGTTACC | -0.0536
GTCGAATA | 0.011
CATAATGG | -0.15
ATCTTAGA | 0.0752
ATTATGTA | 0.311
GTGACGCA | 0.0431
AAGTATAC | 0.159
ACGTCTGG | 0.00628
ACTCCCCC | -0.384
ACTTGAAC | 0.0412
CACTAATG | -0.0516

Sequence | PBM E-score
ACCAGTCT | -0.116
ACTCTTCA | -0.0384
ACCGGTTG | 0.0637
CGTCTCTC | -0.00939
CGGGGGCA | -0.409
CAACCAAG | -0.0607
CAAAAACG | 0.154
CTCGAAAA | -0.0994
ACCTCTGG | -0.148
CAGACCCC | -0.299
AAACCCTA | -0.0833
GACGAATC | 0.0657
AGTAACAG | 0.0348
CGCTCATA | 0.0319
AGATACCC | 0.0764
AAGCCCGG | -0.00105
ACATGAGC | -0.0831
GAACGATA | -0.0378
GGATCACA | 0.114
TAGAGAGA | -0.014
CCCCAGGG | -0.42
AGAGATGG | 0.081

An excerpt of these results, as a markdown table.

| Sequence | PBM E-score |
| --- | --- |
| AGTAACAG | 0.0348 |
| CGCTCATA | 0.0319 |
